Experimental data from PubChem BioAssay AID493014 (National Center for Advancing Translational Sciences (NCATS), 2011).
Among all 340,000 compounds or so, about 170 (0.05%) were called active. Inconclusive results, whose numbers are uncertain, are shown with a selection of clear calls. Calls come from the whole dose curve; as a rule, active = well fitted inhibition curve with a large enough effect in the signal ratio, with a control signal flat (not every such curve was filed as active); inconclusive = small, poorly fitted or top-dose-only effect, or effect the other way, or a change in a side signal; inactive = flat fitted curve, though single readings scatter; the % refers to the signal ratio. Potencies of inconclusive entries are doubtful fits and often do not repeat.

Assay: qHTS Assay to Find Inhibitors of Chronic Active B-Cell Receptor Signaling;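 for activity change, negative = inhibition: plate controls were basal doxycycline-induced cells for no effect and cells given 10 µM MG132 for full effect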
Conditions: ABC-DLBCL IkBa-CBG/CBR reporter, luminescence ratio (green luciferase fused to IkBa over red control in TMD8 lymphoma cells), 4 h; activity change, negative = inhibition: at 46.1 µM (top of the series) unless noted
Method in brief: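 TMD8 human ABC-DLBCL cells with doxycycline-inducible IκBα–green luciferase fusion and unfused red luciferase, in 0.5% FBS medium; compounds up to 46 uM, 4 h at 37C. Green/red luminescence ratio, filter-overlap corrected, fitted to concentration-response curves.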
Potency is the fitted concentration of half-maximal effect.

Compound | activity change, negative = inhibition | Potency
O=[N+]([O-])c1ncccc1OCc1ccc(-c2ccccc2)cc1 | inconclusive: 1.33% | –
COc1ccc(C(C#N)(CC(=O)O)c2cnccn2)cc1OC (stereo not drawn) | inconclusive: -5.28% | –
Cc1ccoc1C(=O)Nc1ccc(CC(=O)O)cc1 | inconclusive: 2.1% | –
CCOC(=O)/C=C1\SCC(=O)N1CC(=O)c1ccc[nH]1 | inconclusive: 1.11% | –
NS(=O)(=O)c1ccc(NC(=O)CCC(=O)c2ccc(Cl)s2)cc1 | inconclusive: 12.7% | –
Cc1cc(C)nc(NS(=O)(=O)c2ccc(NC(=O)c3cc(=O)c4ccccc4o3)cc2)n1 | inconclusive: -14.1% | –
CCc1ccc(CN(C)C(=O)c2cc(=O)c3ccccc3o2)cc1 | inactive | –
O=C(Nc1cccnc1)c1ccc(Cl)c(S(=O)(=O)N2CCCCC2)c1 | inactive | –
Oc1ccccc1C1NN=C(c2ccccc2)S1 (stereo not drawn) | – | inconclusive: 3.98 µM [falling, full curve]
COc1cccc(C(=O)Nc2ccc3c(c2)n(C)c(=O)n3C)c1 | – | inconclusive: 35.5 µM [falling, single point]
Cc1csc(Nc2ccc(C(=O)O)cc2)n1 | – | inconclusive: 0.355 µM [rising, full curve, poor fit]
COc1ccc(C(=O)[C@H]2[C@H]3C(=O)N(c4ccccc4)C(=O)[C@H]3C3C=CC=NN32)cc1 (stereo partly drawn) | – | inconclusive: 22.4 µM [falling, single point]
CCOC(=O)c1c(N)sc(C(=O)Nc2ccccc2F)c1C | – | inconclusive: 17.8 µM [falling, partial curve, poor fit]
Cc1cccc2cc(C#N)c(NCCCNS(=O)(=O)c3ccc(Cl)cc3)nc12 | inactive | –
COc1ccc(CCN2C(=O)CSC2=S)cc1OC | – | inconclusive: 35.5 µM [falling, single point]
O=C(O)/C=C/C(=O)NCc1ccccc1 | inconclusive: -0.135% | –
COc1ccc(-c2cc3ccccc3nc2N)cc1OC | inconclusive: -6.68% | –
CN(C)c1ccc(C(=O)OCc2ccccc2)cc1 | – | inconclusive: 2.91 µM [rising, single point]
O=C(N/N=C1\C2CN3CCN(C2)CC1(c1ccccc1)C3)c1ccc(F)cc1 | – | inconclusive: 20.6 µM [falling, single point]
O=C(C[n+]1ccc(C(=O)NCCCO)cc1)c1cccc(Br)c1 | inconclusive: -1.96% | –
CSc1nc2c(c(=O)[nH]1)C(c1ccccc1Cl)CC(=O)N2 (stereo not drawn) | inconclusive: 1.77% | –
CC(C(=O)NCc1ccc2c(c1)OCO2)N1c2cccc3cccc(c23)S1(=O)=O (stereo not drawn) | inactive | –
O=C(N/N=C/c1cc(Cl)cc([N+](=O)[O-])c1O)C1CC1 | inactive | –

Arranged by SMILES length (rising): part of the list above
Compound | activity change, negative = inhibition | Potency
COc1ccc(-c2cc3ccccc3nc2N)cc1OC | inconclusive: -6.68% | –
CCOC(=O)c1c(N)sc(C(=O)Nc2ccccc2F)c1C | – | inconclusive: 17.8 µM [falling, partial curve, poor fit]
CCOC(=O)/C=C1\SCC(=O)N1CC(=O)c1ccc[nH]1 | inconclusive: 1.11% | –
COc1cccc(C(=O)Nc2ccc3c(c2)n(C)c(=O)n3C)c1 | – | inconclusive: 35.5 µM [falling, single point]
O=C(N/N=C/c1cc(Cl)cc([N+](=O)[O-])c1O)C1CC1 | inactive | –
Cc1cccc2cc(C#N)c(NCCCNS(=O)(=O)c3ccc(Cl)cc3)nc12 | inactive | –
